The record followed here is the supplement of paper PMC3741180, “A Novel High Throughput Biochemical Assay to Evaluate the HuR Protein-RNA Complex Formation” (PLoS ONE, 2013).

Amino acid sequences for entries named in this document (tags omitted).
UniProt Q15717, whole entry: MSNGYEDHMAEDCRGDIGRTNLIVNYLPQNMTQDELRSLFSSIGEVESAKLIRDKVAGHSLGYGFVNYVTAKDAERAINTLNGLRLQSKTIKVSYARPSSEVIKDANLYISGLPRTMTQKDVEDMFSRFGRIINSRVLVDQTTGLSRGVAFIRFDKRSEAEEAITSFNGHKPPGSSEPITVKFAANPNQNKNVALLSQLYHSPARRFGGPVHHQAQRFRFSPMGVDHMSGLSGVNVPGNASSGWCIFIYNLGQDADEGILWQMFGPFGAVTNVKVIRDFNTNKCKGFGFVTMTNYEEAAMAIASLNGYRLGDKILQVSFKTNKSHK

SMILES strings stand for the structures. This is one part of the list. This data set is noisy: repeats of one test often differ as much as different tests do.

The assay concerns the target HuR (ELAVL1) - TNFalpha ARE RNA complex (UniProt Q15717). Briefly: AlphaScreen HuR-RNA complex signal Z-score relative to positive (Bi-TNF, DMSO) controls (Z-score (SD units of positive control)); higher = more complex signal. The note with it: screen stage: primary screen; compound concentration: 25 nM.
With `C[n+]1cc2c3c(ccc2c2ccc4cc5c(cc4c21)OCO5)OCO3`, the “AlphaScreen HuR-RNA complex signal Z-score” value turned out to be 0.719.
For `COc1ccc2c(c1)OCC(Cc1ccc(O)c(OC)c1)C2=O` (stereo not drawn) the value was 2.8; for `C=C(C)CCCC(C)CCOC(C)=O` (stereo not drawn), 1.63.
The same measure for `CN(C)CCN(Cc1ccccc1)c1ccccn1`: -1.87.
For `C=CC1=C(C)c2cc3[nH]c(cc4nc(cc5[nH]c(cc1n2)c(C)c5CCC(=O)O)C(CCC(=O)O)=C4C)c(C)c3C=C` the value was 1.37; for `COc1ccc(-c2coc3c(O)c(OC)ccc3c2=O)cc1`, 2.49; for `C[C@]12CC[C@@H]3c4ccc(O)cc4CC[C@H]3[C@@H]1CC[C@@H]2O`, -1.29.
With `CCCN(CCC)S(=O)(=O)c1ccc(C(=O)O)cc1`, the “AlphaScreen HuR-RNA complex signal Z-score” value was 16.7.
The same measure for `CCN(CC)C(=O)c1cccc(C)c1`: 4.43.
Consider `CC(=O)[C@H]1CC[C@H]2[C@@H]3CCC4=CC(=O)CC[C@]4(C)[C@H]3CC[C@]12C`, for which the “AlphaScreen HuR-RNA complex signal Z-score” value was found to be 19.4.
For `CN(C)CC/C=C1/c2ccccc2Sc2ccc(Cl)cc21` the value was 1.31; for `CC(=O)O[C@H]1C[C@@H](OC(C)=O)C(C)(C)[C@@H]2C[C@@H](OC(C)=O)[C@]3(C)[C@H](CC[C@@]4(C)[C@H](c5ccoc5)OC(=O)[C@H]5O[C@@]534)[C@@]12C`, 1.3.
For the molecule `CN(C)CCOC(c1ccccc1)c1ccccc1`, the “AlphaScreen HuR-RNA complex signal Z-score” value was -5.17.
For `C=CCCCCCCCCCCCc1ccco1` the value was 2.57; for `CC1=C(/C=C/C(C)=C/C=C/C(C)=C/C(=O)O)C(C)(C)CCC1`, 1.62.
The same measure for `CC(=O)O[C@@H]1CC2C(C)(C)[C@H](O)C=C[C@]2(C)C2CC[C@@]3(C)[C@H](c4ccoc4)OC(=O)C4OC43[C@@]21C` (stereo partly drawn): 1.8; for `CC(=O)Oc1ccccc1C(=O)O`: 0.719; for `N=C(N)NS(=O)(=O)c1ccc(N)cc1`: 1.03.
The same measure for `COc1cc2c3cc1Oc1cc(ccc1O)C[C@@H]1c4c(cc(OC)c(O)c4Oc4ccc(cc4)C[C@@H]3N(C)CC2)CC[N+]1(C)C`: -0.901; for `Cc1ncc(CO)c(CO)c1O`: 1.48; for `COc1cc(C(=O)NCCCCCC(=O)O)cc(OC)c1OC`: 2.09.
As for `CC1=C(C(=O)O)N2C(=O)[C@@H](NC(=O)[C@H](N)C3=CCC=CC3)[C@H]2SC1`, the “AlphaScreen HuR-RNA complex signal Z-score” value was -3.07.
For `N[C@@H](CCC(=O)N[C@@H](CS)C(=O)NCC(=O)O)C(=O)O`, the “AlphaScreen HuR-RNA complex signal Z-score” value is -0.00679.
`O=C(O)COCCN1CCN(C(c2ccccc2)c2ccc(Cl)cc2)CC1` (stereo not drawn): the “AlphaScreen HuR-RNA complex signal Z-score” value was 0.636.
Take `N[C@@H]1CONC1=O`: the “AlphaScreen HuR-RNA complex signal Z-score” value was -3.12.
For `C#C[C@]1(OC(C)=O)CC[C@H]2[C@@H]3CCC4=CC(=NO)CC[C@@H]4[C@H]3CC[C@@]21CC` (mixture of isomers) the value was 0.474.
For `COc1ccc2cc([C@H](C)CO)ccc2c1` the value was 0.913; for `CC(=O)O[C@]1(C(C)=O)CC[C@H]2[C@@H]3C=C(Cl)C4=CC(=O)[C@@H]5C[C@@H]5[C@]4(C)[C@H]3CC[C@@]21C`, -3.61.
